Measured values reported in publication PMC3344915.
These are yes or no findings as the source states them, for the method shown. Binding seen in cells or lysates may run through a third protein. Some results given as binding are weak or reduced against the parent protein; the word gives no strength. For some assays here: Sequences can lack the tags named with a protein.

Protein sequences, listed by entry. Tags and fused reporters are not part of them.
UniProt Q7Z2H8: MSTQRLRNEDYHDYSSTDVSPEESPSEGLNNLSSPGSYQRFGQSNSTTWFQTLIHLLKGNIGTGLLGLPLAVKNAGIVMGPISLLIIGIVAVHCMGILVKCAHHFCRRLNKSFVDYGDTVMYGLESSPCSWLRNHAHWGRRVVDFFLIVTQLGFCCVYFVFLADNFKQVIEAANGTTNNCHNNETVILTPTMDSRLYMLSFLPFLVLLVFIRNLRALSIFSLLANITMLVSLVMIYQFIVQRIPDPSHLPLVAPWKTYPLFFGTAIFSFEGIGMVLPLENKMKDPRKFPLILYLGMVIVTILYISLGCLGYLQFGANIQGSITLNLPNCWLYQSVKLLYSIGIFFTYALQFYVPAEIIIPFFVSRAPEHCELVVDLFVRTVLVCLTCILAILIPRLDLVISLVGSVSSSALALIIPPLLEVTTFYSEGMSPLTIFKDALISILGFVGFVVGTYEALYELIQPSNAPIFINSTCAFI
UniProt Q9HB90: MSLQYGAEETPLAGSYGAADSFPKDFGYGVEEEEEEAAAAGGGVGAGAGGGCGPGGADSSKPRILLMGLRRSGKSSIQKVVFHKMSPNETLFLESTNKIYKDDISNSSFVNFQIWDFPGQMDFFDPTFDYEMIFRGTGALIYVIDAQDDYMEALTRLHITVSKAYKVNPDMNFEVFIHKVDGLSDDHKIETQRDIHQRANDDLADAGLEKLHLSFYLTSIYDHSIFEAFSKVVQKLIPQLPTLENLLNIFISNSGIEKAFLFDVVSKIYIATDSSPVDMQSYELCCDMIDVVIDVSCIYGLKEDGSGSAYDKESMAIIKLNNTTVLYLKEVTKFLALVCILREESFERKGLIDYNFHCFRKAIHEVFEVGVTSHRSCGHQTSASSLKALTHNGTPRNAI

Legend:
Flag-Rap2A = biological target: T1, Flag-Rap2A (UniProt P10114); assay: co-IP; anti-Flag immunoprecipitation (FlagIPT-1 kit, Sigma-Aldrich) from cleared RIPA lysates of HEK-293 cells (stable Flag-PAT1 line, or transiently expressing Flag-RagD or Flag-Rap2A), steady state conditions; Western blot of the precipitates
T1 sequence: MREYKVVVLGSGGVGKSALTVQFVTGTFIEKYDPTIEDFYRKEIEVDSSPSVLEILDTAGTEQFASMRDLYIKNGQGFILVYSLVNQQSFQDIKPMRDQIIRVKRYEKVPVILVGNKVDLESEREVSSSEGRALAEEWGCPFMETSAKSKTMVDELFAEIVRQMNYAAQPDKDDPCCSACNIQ

[1] = biological target: Flag-tagged Proton-assisted Amino acid Transporter 1 (PAT1)/SLC36A1 (human) (UniProt Q7Z2H8); assay: as above

| binding (Flag-Rap2A) | binding [1] | Substance |
| --- | --- | --- |
| no binding |  | Proton-assisted Amino acid Transporter 1 (PAT1)/SLC36A1 (from UniProt Q7Z2H8 1-476) |
|  | binds | RagC (from UniProt Q9HB90 1-399) (other; other documents disagree on this pair) |
